From patent US20170037131A1
No constants are given. Whether binding was seen depends on the method and setting. Some results given as binding are weak or reduced against the parent protein; the word gives no strength.

The chains behind the UniProt entries cited, without tags or fusion partners. Residues count along the entry.
UniProt P01589, residues 22-240: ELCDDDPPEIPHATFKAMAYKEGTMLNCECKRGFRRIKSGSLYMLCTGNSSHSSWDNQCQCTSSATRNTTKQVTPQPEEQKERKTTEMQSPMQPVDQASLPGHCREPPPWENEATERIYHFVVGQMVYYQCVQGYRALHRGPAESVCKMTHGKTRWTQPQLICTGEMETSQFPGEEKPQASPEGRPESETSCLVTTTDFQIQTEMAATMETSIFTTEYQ

Molecular target: CD25 (UniProt P01589)
Assay: Biacore; antibody captured on a Protein A chip, antigen flowed at 100 nM

binding: binds
B1: HuMax-TAC anti-CD25 heavy chain paired with the anti-CD4 light chain of OKT4A (antibody, V domains shown)
VH: QVQLVQSGAEVKKPGSSVKVSCKASGGTFSRYIINWVRQAPGQGLEWMGRIIPILGVENYAQKFQGRVTITADKSTSTAYMELSSLRSEDTAVYYCARKDWFDYWGQGTLVTVSS
VL: DIQMTQSPSSLSASLGGKVTIACKASQDINNYIAWYQHKPGKGPRLLIHYTSTLQPGIPSRFSGSGSGRDYSFSISNLEPEDIATYYCLQYDNLLFTFGGGTKLEIKR
